Measurements as given in PubChem BioAssay AID224 (DTP/NCI, 2004).
The list does not hold the whole screen: it gathers some chemical classes. Other doses and runs of a compound may be missing. T/C is the treated group as % of the vehicle group. For survival time, the PubChem record calls one and a half times the control and up active, and a quarter to a half above the control has no call in these data; cut-offs in other NCI protocols can differ. Some T/C values are marked as having no survivor count here; that says nothing about deaths at the dose. Schedules are NCI's codes, taken here to give the interval after Q, in days (D) or hours (H), and the number of doses after X. Some schedule codes hold Z or #, which are not explained here. Some entries were tested several times; the values are given in rising order.

Test system: P335 leukemia ip, BDF1 mice, survival T/C %
Assay: NCI In Vivo Anticancer Drug Screen. Data for tumor model P335 Leukemia (intraperitoneal) in B6D2F1 (BDF1) mice
Conditions: T/C endpoint: mean survival time, schedule: Q01DX Z (ip), vehicle: saline, higher T/C = longer survival
Description: The antitumor activity of compounds was measured in mice bearing transplantable tumors. Survival or tumor size were measured and the results are expressed as the measurement made in the treated group (T) divided by the measurement made in the vehicle treated control group (C). The tumor model used in this assay is P335 Leukemia (intraperitoneal) in B6D2F1 (BDF1) mice

Compound: CN(CCCl)CCCl
- T/C (dose: 0.02 mg/kg/injection): 122 % of control [survivor count not shown]
- T/C (dose: 0.08 mg/kg/injection): 108 % of control [survivor count not shown]
- T/C (dose: 0.32 mg/kg/injection): 106 % of control [survivor count not shown]
- T/C (dose: 0.6 micrograms/kg/injection): 87 % of control [survivor count not shown]
- T/C (dose: 5.0 micrograms/kg/injection): 90 % of control [survivor count not shown]
- T/C (dose: 10.0 micrograms/kg/injection): 125 % of control [survivor count not shown]
- T/C (dose: 20.0 micrograms/kg/injection): 103 [survivor count not shown] and 166 % of control [survivor count not shown]
- T/C (dose: 40.0 micrograms/kg/injection): 160 % of control [survivor count not shown]
